# In the supplement of paper PMC3682954:
# Where a name gives a salt, the structure may show the parent alone. ± gives the standard deviation of the averaged measurements. The list shows a part of the results. Most values come without repeats; read them as rough.
# Tested on: RAW 264.7
# Assay: cell viability (MTT) relative to vehicle control; higher = more viable cells
# Settings: stimulus: HMGB1 5 ug/ml, 18 h
# [1] = compound concentration: 1 ug/ml
Compound,cell viability (compound concentration: 3 uM) [%],cell viability [1] [%]
OC(CCN1CCCCC1)(c1ccccc1)C1CC2C=CC1C2 (stereo not drawn) [Biperiden hydrochloride],87.9 ± 3,
OC(CCN1CCCCC1)(c1ccccc1)C1CC2C=CC1C2 (stereo not drawn),105,
CCN(Cc1ccncc1)C(=O)C(CO)c1ccccc1 (stereo not drawn) [Tropicamide],107 ± 12,
CCN(Cc1ccncc1)C(=O)C(CO)c1ccccc1 (stereo not drawn),103,
CN(C)CCOC1=Cc2ccccc2Sc2ccc(Cl)cc21 [Zotepine],118,
O=C(NCCNCC(O)COc1ccc(O)cc1)N1CCOCC1 (stereo not drawn) [Xamoterol],107,
O=C(NCCNCC(O)COc1ccc(O)cc1)N1CCOCC1 (stereo not drawn) [Xamoterol hemifumarate],101,
N=C(N)c1ccccc1 [Benzamidine hydrochloride],91.8,
COCc1c(C(C)C)nc(C(C)C)c(/C=C/[C@@H](O)C[C@@H](O)CC(=O)O)c1-c1ccc(F)cc1 [Cerivastatin],121,
COCc1c(C(C)C)nc(C(C)C)c(/C=C/[C@@H](O)C[C@@H](O)CC(=O)O)c1-c1ccc(F)cc1,100,
COc1ccc(C(=O)NCc2cccnc2)cc1C(=O)NCc1cccnc1 [Picotamide],98.4 ± 6.5,
COc1ccc(C(=O)NCc2cccnc2)cc1C(=O)NCc1cccnc1 [Picotamide monohydrate],91.2,
CC(C)c1cccc(C(C)C)c1N1C(=O)c2ccc(O)cc2C1=O,114,
O=C([O-])c1ccccc1O.[Na+],100,
COc1ccc2[nH]cc(CCNC(C)=O)c2c1 [Melatonin],107 ± 8.2,93
CCCCC/C=C\C[C@@H](O)/C=C/c1cccc(C[C@@H](O)CCCCO)n1,117,
NC[C@H]1O[C@H](O[C@H]2[C@H](O[C@@H]3O[C@H](CO)[C@@H](O)[C@H]3O)[C@@H](O)[C@H](N)C[C@@H]2N)[C@H](N)[C@@H](O)[C@@H]1O,112,
NC[C@H]1O[C@H](O[C@H]2[C@H](O[C@@H]3O[C@H](CO)[C@@H](O)[C@H]3O)[C@@H](O)[C@H](N)C[C@@H]2N)[C@H](N)[C@@H](O)[C@@H]1O [Ribostamycin sulfate salt],118,
Cc1ccc(C(=O)c2cc(O)c(O)c([N+](=O)[O-])c2)cc1 [Tolcapone],102,

# Looked up above:
# Cc1ccc(C(=O)c2cc(O)c(O)c([N+](=O)[O-])c2)cc1 [Tolcapone] | cell viability (compound concentration: 3 uM) [%]: 102
# OC(CCN1CCCCC1)(c1ccccc1)C1CC2C=CC1C2 (stereo not drawn) | cell viability (compound concentration: 3 uM) [%]: 105

# (list continues)

Compound,cell viability (compound concentration: 3 uM) [%],cell viability [1] [%]
O=Nc1c(-c2c(O)[nH]c3ccccc23)[nH]c2ccccc12 [Indirubin-3'-oxime],103,
C=CC[C@@H]1/C=C(\C)C[C@H](C)C[C@H](OC)[C@H]2O[C@@](O)(C(=O)C(=O)N3CCCC[C@H]3C(=O)O[C@H](/C(C)=C/[C@@H]3CC[C@@H](O)[C@H](OC)C3)[C@H](C)[C@@H](O)CC1=O)[C@H](C)C[C@@H]2OC,111 ± 6.7,
C[C@]12CCC(=O)C=C1CC[C@@H]1[C@@H]2[C@@H](O)C[C@@]2(C)[C@H]1CC[C@]2(O)C(=O)CO [Hydrocortisone base],115,
"C[C@]12CCC(=O)C=C1CC[C@@H]1[C@@H]2[C@@H](O)C[C@@]2(C)[C@H]1CC[C@]2(O)C(=O)CO [Hydrocortisone, 98%]",,107
C[C@]12CCC(=O)C=C1CC[C@@H]1[C@@H]2[C@@H](O)C[C@@]2(C)[C@H]1CC[C@]2(O)C(=O)CO,115,
C[C@]12CCC(=O)C=C1CC[C@@H]1[C@@H]2[C@@H](O)C[C@@]2(C)[C@H]1CC[C@]2(O)C(=O)CO [Hydrocortisone],104 ± 9.1,
CCOC(=O)C1=C[C@@H](OC(CC)CC)[C@H](NC(C)=O)[C@@H](N)C1 [Oseltamivir],100,
CNCCCC1c2ccccc2C=Cc2ccccc21,95.8,
CNCCCC1c2ccccc2C=Cc2ccccc21 [Protriptyline hydrochloride],94.7 ± 11,
CCCCCCC[N+](CC)(CC)CCCCc1ccc(Cl)cc1 [Clofilium tosylate],81.2,
O=[N+]([O-])c1ccc(-c2nc(-c3ccc(F)cc3)c(-c3ccncc3)[nH]2)cc1,93.5,
O=c1cc(-c2ccccc2F)[nH]c2cc3c(cc12)OCO3 [CHM-1 hydrate],76.1,
Oc1ncnc2[nH]ncc12 [Allopurinol],97 ± 16,
Oc1ncnc2[nH]ncc12,104,
S=C(S)OC1CC2CC1C1CCCC21 [D-609 potassium],117,
O=C(CCc1ccc(O)cc1)c1c(O)cc(O)cc1O[C@@H]1O[C@H](CO)[C@@H](O)[C@H](O)[C@H]1O [Phloridzin dihydrate],,90
CC(=O)C1=C(O)C=C2Oc3c(C(C)=O)c(O)c(C)c(O)c3[C@@]2(C)C1=O [(+)-Usnic acid],,82.1
CN(N=O)C(=O)N[C@H]1C(O)O[C@H](CO)[C@@H](O)[C@@H]1O (mixture of isomers),96.99 ± 0.085,
